Where a chain is given by its changes, count along the chain named. Results are given in words; binding and its absence hold for the method and conditions named. In cells and extracts the contact can be indirect. Some results given as binding are weak or reduced against the parent protein; the word gives no strength.
T1: F-SMG7 wild type, transfected (UniProt Q92540)
T1 sequence: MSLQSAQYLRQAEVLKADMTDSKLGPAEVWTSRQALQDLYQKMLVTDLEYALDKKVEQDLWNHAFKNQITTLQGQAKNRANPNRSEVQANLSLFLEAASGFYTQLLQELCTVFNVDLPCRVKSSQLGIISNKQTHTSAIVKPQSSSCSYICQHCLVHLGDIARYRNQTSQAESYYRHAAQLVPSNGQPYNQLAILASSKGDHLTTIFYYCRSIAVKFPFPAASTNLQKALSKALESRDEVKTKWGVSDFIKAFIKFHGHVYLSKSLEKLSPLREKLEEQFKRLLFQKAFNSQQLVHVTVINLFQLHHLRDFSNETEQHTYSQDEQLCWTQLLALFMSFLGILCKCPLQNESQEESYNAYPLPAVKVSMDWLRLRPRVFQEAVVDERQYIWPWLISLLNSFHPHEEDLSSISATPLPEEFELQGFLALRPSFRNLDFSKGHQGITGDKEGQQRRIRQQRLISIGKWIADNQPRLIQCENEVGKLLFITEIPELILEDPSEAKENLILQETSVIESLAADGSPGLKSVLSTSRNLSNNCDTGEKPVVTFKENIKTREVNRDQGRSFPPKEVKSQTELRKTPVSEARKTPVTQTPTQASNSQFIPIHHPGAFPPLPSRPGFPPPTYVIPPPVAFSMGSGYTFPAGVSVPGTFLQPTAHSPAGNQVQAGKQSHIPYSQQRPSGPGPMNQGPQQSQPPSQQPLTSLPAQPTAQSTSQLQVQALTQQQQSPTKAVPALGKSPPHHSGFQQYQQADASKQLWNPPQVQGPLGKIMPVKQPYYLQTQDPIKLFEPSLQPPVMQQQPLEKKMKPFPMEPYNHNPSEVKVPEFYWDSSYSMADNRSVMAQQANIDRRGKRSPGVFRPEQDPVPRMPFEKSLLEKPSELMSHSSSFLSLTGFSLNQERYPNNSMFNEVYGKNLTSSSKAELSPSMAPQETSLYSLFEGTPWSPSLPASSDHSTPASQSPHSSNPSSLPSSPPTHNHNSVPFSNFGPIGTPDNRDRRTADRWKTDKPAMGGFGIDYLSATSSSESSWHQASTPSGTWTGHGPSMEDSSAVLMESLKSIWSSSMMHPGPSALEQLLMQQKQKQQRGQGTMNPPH

T2: F-SMG7-K66E, transfected (UniProt Q92540)
T2 sequence: T1 sequence with K66E

B1: UPF1, endogenous (protein, UniProt Q92900 1-1129)
chain: MSVEAYGPSSQTLTFLDTEEAELLGADTQGSEFEFTDFTLPSQTQTPPGGPGGPGGGGAGGPGGAGAGAAAGQLDAQVGPEGILQNGAVDDSVAKTSQLLAELNFEEDEEDTYYTKDLPIHACSYCGIHDPACVVYCNTSKKWFCNGRGNTSGSHIVNHLVRAKCKEVTLHKDGPLGETVLECYNCGCRNVFLLGFIPAKADSVVVLLCRQPCASQSSLKDINWDSSQWQPLIQDRCFLSWLVKIPSEQEQLRARQITAQQINKLEELWKENPSATLEDLEKPGVDEEPQHVLLRYEDAYQYQNIFGPLVKLEADYDKKLKESQTQDNITVRWDLGLNKKRIAYFTLPKTDSGNEDLVIIWLRDMRLMQGDEICLRYKGDLAPLWKGIGHVIKVPDNYGDEIAIELRSSVGAPVEVTHNFQVDFVWKSTSFDRMQSALKTFAVDETSVSGYIYHKLLGHEVEDVIIKCQLPKRFTAQGLPDLNHSQVYAVKTVLQRPLSLIQGPPGTGKTVTSATIVYHLARQGNGPVLVCAPSNIAVDQLTEKIHQTGLKVVRLCAKSREAIDSPVSFLALHNQIRNMDSMPELQKLQQLKDETGELSSADEKRYRALKRTAERELLMNADVICCTCVGAGDPRLAKMQFRSILIDESTQATEPECMVPVVLGAKQLILVGDHCQLGPVVMCKKAAKAGLSQSLFERLVVLGIRPIRLQVQYRMHPALSAFPSNIFYEGSLQNGVTAADRVKKGFDFQWPQPDKPMFFYVTQGQEEIASSGTSYLNRTEAANVEKITTKLLKAGAKPDQIGIITPYEGQRSYLVQYMQFSGSLHTKLYQEVEIASVDAFQGREKDFIILSCVRANEHQGIGFLNDPRRLNVALTRARYGVIIVGNPKALSKQPLWNHLLNYYKEQKVLVEGPLNNLRESLMQFSKPRKLVNTINPGARFMTTAMYDAREAIIPGSVYDRSSQGRPSSMYFQTHDQIGMISAGPSHVAAMNIPIPFNLVMPPMPPPGYFGQANGPAAGRGTPKGKTGRGGRQKNRFGLPGPSQTNLPNSQASQDVASQPFSQGALTQGYISMSQPSQMSQPGLSQPELSQDSYLGDEFKSQIDVALSQDSTYQGERAYQHGGVTGLSQY
B2: SMG5, endogenous (protein, UniProt Q9UPR3 1-1016)
chain: MSQGPPTGESSEPEAKVLHTKRLYRAVVEAVHRLDLILCNKTAYQEVFKPENISLRNKLRELCVKLMFLHPVDYGRKAEELLWRKVYYEVIQLIKTNKKHIHSRSTLECAYRTHLVAGIGFYQHLLLYIQSHYQLELQCCIDWTHVTDPLIGCKKPVSASGKEMDWAQMACHRCLVYLGDLSRYQNELAGVDTELLAERFYYQALSVAPQIGMPFNQLGTLAGSKYYNVEAMYCYLRCIQSEVSFEGAYGNLKRLYDKAAKMYHQLKKCETRKLSPGKKRCKDIKRLLVNFMYLQSLLQPKSSSVDSELTSLCQSVLEDFNLCLFYLPSSPNLSLASEDEEEYESGYAFLPDLLIFQMVIICLMCVHSLERAGSKQYSAAIAFTLALFSHLVNHVNIRLQAELEEGENPVPAFQSDGTDEPESKEPVEKEEEPDPEPPPVTPQVGEGRKSRKFSRLSCLRRRRHPPKVGDDSDLSEGFESDSSHDSARASEGSDSGSDKSLEGGGTAFDAETDSEMNSQESRSDLEDMEEEEGTRSPTLEPPRGRSEAPDSLNGPLGPSEASIASNLQAMSTQMFQTKRCFRLAPTFSNLLLQPTTNPHTSASHRPCVNGDVDKPSEPASEEGSESEGSESSGRSCRNERSIQEKLQVLMAEGLLPAVKVFLDWLRTNPDLIIVCAQSSQSLWNRLSVLLNLLPAAGELQESGLALCPEVQDLLEGCELPDLPSSLLLPEDMALRNLPPLRAAHRRFNFDTDRPLLSTLEESVVRICCIRSFGHFIARLQGSILQFNPEVGIFVSIAQSEQESLLQQAQAQFRMAQEEARRNRLMRDMAQLRLQLEVSQLEGSLQQPKAQSAMSPYLVPDTQALCHHLPVIRQLATSGRFIVIIPRTVIDGLDLLKKEHPGARDGIRYLEAEFKKGNRYIRCQKEVGKSFERHKLKRQDADAWTLYKILDSCKQLTLAQGAGEEDPSGMVTIITGLPLDNPSVLSGPMQAALQAAAHASVDIKNVLDFYKQWKEIG

Columns and labels:
[1] = target: T1, F-SMG7 wild type, transfected; assay: co-IP; α-Flag (SMG7) immunoprecipitates from cells expressing F-SMG7 or F-SMG7-K66E, western blot; cells not given
F-SMG7-K66E, transfected = target: T2, F-SMG7-K66E, transfected; assay: as above

Binder	binding [1]	binding (F-SMG7-K66E, transfected)
B1	binds	no binding
B2	binds	binds

Source: PMC6739308
